From the supplement of paper PMC7661543
Differences between knockout arms are mostly noise.

Test system: MDA-MB-231
Experiment: relative cell number vs DMSO control (72 h) (% of DMSO); higher = less growth inhibition (more cells)
Protocol: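 QMAP-Seq: a pool of 5 breast cancer cell lines (ZR-75-1, SKBR3, HCC-38, MDA-MB-231, BT-20), each carrying 12 doxycycline-inducible Cas9 sgRNA perturbations (11 knockouts plus non-targeting sgNT), was treated with compounds for 72 h at four 10-fold doses (10 nM-10 uM or 1 nM-1 uM range). Barcodes were amplified and sequenced, and cell number was interpolated from 293T spike-in standard curves. The result is expressed as % of the median of DMSO wells. Two biological replicates.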

C[C@]12CC[C@H](O)CC1=CC[C@@H]1[C@@H]2CC[C@]2(C)C(c3cccnc3)=CC[C@@H]12 [Abiraterone]
Conditions	relative cell number
sgRNA knockout: sgATF3, 1 nM	151
sgRNA knockout: sgATF3, 10 nM	123
sgRNA knockout: sgATF3, 100 nM	122
sgRNA knockout: sgATF3, 1000 nM	119
sgRNA knockout: sgATF4, 1 nM	109
sgRNA knockout: sgATF4, 10 nM	117
sgRNA knockout: sgATF4, 100 nM	95.2
sgRNA knockout: sgATF4, 1000 nM	127
sgRNA knockout: sgATF6, 1 nM	92.4
sgRNA knockout: sgATF6, 10 nM	81.8
sgRNA knockout: sgATF6, 100 nM	115
sgRNA knockout: sgATF6, 1000 nM	119
sgRNA knockout: sgATG7, 1 nM	106
sgRNA knockout: sgATG7, 10 nM	127
sgRNA knockout: sgATG7, 100 nM	100
sgRNA knockout: sgATG7, 1000 nM	108
sgRNA knockout: sgERN1, 1 nM	112
sgRNA knockout: sgERN1, 10 nM	120
sgRNA knockout: sgERN1, 100 nM	110
sgRNA knockout: sgERN1, 1000 nM	97.7
sgRNA knockout: sgHSF1, 1 nM	100
sgRNA knockout: sgHSF1, 10 nM	111
sgRNA knockout: sgHSF1, 100 nM	99.2
sgRNA knockout: sgHSF1, 1000 nM	103
sgRNA knockout: sgHSF2, 1 nM	98.7
sgRNA knockout: sgHSF2, 10 nM	109
sgRNA knockout: sgHSF2, 100 nM	131
sgRNA knockout: sgHSF2, 1000 nM	104
sgRNA knockout: sgKEAP1, 1 nM	107
sgRNA knockout: sgKEAP1, 10 nM	112
sgRNA knockout: sgKEAP1, 100 nM	105
sgRNA knockout: sgKEAP1, 1000 nM	92.3
sgRNA knockout: sgNFE2L2, 1 nM	102
sgRNA knockout: sgNFE2L2, 10 nM	105
sgRNA knockout: sgNFE2L2, 100 nM	89.99
sgRNA knockout: sgNFE2L2, 1000 nM	122
sgRNA knockout: sgSLC35F2, 1 nM	113
sgRNA knockout: sgSLC35F2, 10 nM	102
sgRNA knockout: sgSLC35F2, 100 nM	104
sgRNA knockout: sgSLC35F2, 1000 nM	113
sgRNA knockout: sgXBP1, 1 nM	110
sgRNA knockout: sgXBP1, 10 nM	103
sgRNA knockout: sgXBP1, 100 nM	123
sgRNA knockout: sgXBP1, 1000 nM	121

CC(C)(C#N)c1cc(Cn2cncn2)cc(C(C)(C)C#N)c1 [Anastrozole]
Conditions	relative cell number
sgRNA knockout: sgATF3, 1 nM	130
sgRNA knockout: sgATF3, 10 nM	124
sgRNA knockout: sgATF3, 100 nM	112
sgRNA knockout: sgATF3, 1000 nM	100
sgRNA knockout: sgATF4, 1 nM	129
sgRNA knockout: sgATF4, 10 nM	131
sgRNA knockout: sgATF4, 100 nM	123
sgRNA knockout: sgATF4, 1000 nM	79
sgRNA knockout: sgATF6, 1 nM	109
sgRNA knockout: sgATF6, 10 nM	101
sgRNA knockout: sgATF6, 100 nM	140
sgRNA knockout: sgATF6, 1000 nM	102
sgRNA knockout: sgATG7, 1 nM	120
sgRNA knockout: sgATG7, 10 nM	124
sgRNA knockout: sgATG7, 100 nM	116
sgRNA knockout: sgATG7, 1000 nM	98.3
sgRNA knockout: sgERN1, 1 nM	106
sgRNA knockout: sgERN1, 10 nM	97.2
sgRNA knockout: sgERN1, 100 nM	94.6
sgRNA knockout: sgERN1, 1000 nM	97.1
sgRNA knockout: sgHSF1, 1 nM	105
sgRNA knockout: sgHSF1, 10 nM	111
sgRNA knockout: sgHSF1, 100 nM	102
sgRNA knockout: sgHSF1, 1000 nM	112
sgRNA knockout: sgHSF2, 1 nM	117
sgRNA knockout: sgHSF2, 10 nM	111
sgRNA knockout: sgHSF2, 100 nM	124
sgRNA knockout: sgHSF2, 1000 nM	96.5
sgRNA knockout: sgKEAP1, 1 nM	105
sgRNA knockout: sgKEAP1, 10 nM	86.8
sgRNA knockout: sgKEAP1, 100 nM	100
sgRNA knockout: sgKEAP1, 1000 nM	109
sgRNA knockout: sgNFE2L2, 1 nM	125
sgRNA knockout: sgNFE2L2, 10 nM	123
sgRNA knockout: sgNFE2L2, 100 nM	123
sgRNA knockout: sgNFE2L2, 1000 nM	83.8
sgRNA knockout: sgSLC35F2, 1 nM	127
sgRNA knockout: sgSLC35F2, 10 nM	118
sgRNA knockout: sgSLC35F2, 100 nM	122
sgRNA knockout: sgSLC35F2, 1000 nM	89
sgRNA knockout: sgXBP1, 1 nM	123
sgRNA knockout: sgXBP1, 10 nM	101
sgRNA knockout: sgXBP1, 100 nM	102
sgRNA knockout: sgXBP1, 1000 nM	118

C[C@H]1CCC/C=C/[C@@H]2C[C@H](O)C[C@H]2[C@H](O)/C=C/C(=O)O1 [BrefeldinA]
Conditions	relative cell number
sgRNA knockout: sgATF3, 10 nM	122
sgRNA knockout: sgATF3, 100 nM	12.3
sgRNA knockout: sgATF3, 1000 nM	3.85
sgRNA knockout: sgATF3, 10000 nM	5.56
sgRNA knockout: sgATF4, 10 nM	108
sgRNA knockout: sgATF4, 100 nM	8.76
sgRNA knockout: sgATF4, 1000 nM	2.47
sgRNA knockout: sgATF4, 10000 nM	10.3
sgRNA knockout: sgATF6, 10 nM	103
sgRNA knockout: sgATF6, 100 nM	13.7
sgRNA knockout: sgATF6, 1000 nM	5.19
sgRNA knockout: sgATF6, 10000 nM	4.61
sgRNA knockout: sgATG7, 10 nM	102
sgRNA knockout: sgATG7, 100 nM	10.2
sgRNA knockout: sgATG7, 1000 nM	4.82
sgRNA knockout: sgATG7, 10000 nM	6.37
sgRNA knockout: sgERN1, 10 nM	105
sgRNA knockout: sgERN1, 100 nM	14.6
sgRNA knockout: sgERN1, 1000 nM	3.55
sgRNA knockout: sgERN1, 10000 nM	5.72
sgRNA knockout: sgHSF1, 10 nM	84.4
sgRNA knockout: sgHSF1, 100 nM	11.2
sgRNA knockout: sgHSF1, 1000 nM	7.97
sgRNA knockout: sgHSF1, 10000 nM	6.49
sgRNA knockout: sgHSF2, 10 nM	83.7
sgRNA knockout: sgHSF2, 100 nM	10.6
sgRNA knockout: sgHSF2, 1000 nM	5.09
sgRNA knockout: sgHSF2, 10000 nM	4.65
sgRNA knockout: sgKEAP1, 10 nM	106
sgRNA knockout: sgKEAP1, 100 nM	10.9
sgRNA knockout: sgKEAP1, 1000 nM	6.62
sgRNA knockout: sgKEAP1, 10000 nM	6.02
sgRNA knockout: sgNFE2L2, 10 nM	98.7
sgRNA knockout: sgNFE2L2, 100 nM	14.8
sgRNA knockout: sgNFE2L2, 1000 nM	5.28
sgRNA knockout: sgNFE2L2, 10000 nM	5.96
sgRNA knockout: sgSLC35F2, 10 nM	119
sgRNA knockout: sgSLC35F2, 100 nM	14.4
sgRNA knockout: sgSLC35F2, 1000 nM	5.75
sgRNA knockout: sgSLC35F2, 10000 nM	6.35
sgRNA knockout: sgXBP1, 10 nM	106
sgRNA knockout: sgXBP1, 100 nM	20.4
sgRNA knockout: sgXBP1, 1000 nM	6.83
sgRNA knockout: sgXBP1, 10000 nM	7.55
